For experiment [1], the target named is T1, stathmin1-Flag (wild type) (UniProt P16949).
T1 sequence: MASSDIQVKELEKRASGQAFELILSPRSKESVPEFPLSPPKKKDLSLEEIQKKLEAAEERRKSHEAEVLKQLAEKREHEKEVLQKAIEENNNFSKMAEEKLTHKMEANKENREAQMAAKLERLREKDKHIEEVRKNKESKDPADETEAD
Put plainly: co-IP; 293T cells transiently transfected for 48 h, lysed with 0.1% NP40 with 1 mM PMSF and 1 mM Na3VO4; lysate precleaned by IgG, HA, MYC or Flag beads overnight at 4 °C, immunoblot; cells treated with NAM, MG132, or co-transfected with ERBB2^S310F-Flag, PCAF-HA, sirt2-HA or Ub-MYC as told for each panel. (In western blotting, separated proteins are transferred to a membrane and probed.)

For experiment [2], the target named is T2, stathmin1 overexpressed in GBC-SD and SGC-996 stable cells (UniProt P16949).
T2 sequence: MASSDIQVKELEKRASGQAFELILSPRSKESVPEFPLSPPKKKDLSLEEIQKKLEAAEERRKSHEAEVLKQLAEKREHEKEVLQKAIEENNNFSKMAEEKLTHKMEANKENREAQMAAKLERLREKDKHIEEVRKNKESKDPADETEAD
The experiment is described as follows: co-IP; GBC-SD and SGC-996 stable cells (stathmin1 overexpression or ERBB2^S310F overexpression); cells treated with NAM, binimetinib, or siRNA against PCAF or sirt2 as told for each panel; immunoblot.

Results are given in words; binding and its absence hold for the method and conditions named. Binding seen in cells or lysates may run through a third protein. Some binding calls cover weakened binding; strength is not graded here. For some assays here: Where a sequence is shown, tags or fusion partners need not be part of it.

B1: RLIM-HA (enzyme, UniProt Q9NVW2 1-624)
chain: MENSDSNDKGSGDQSAAQRRSQMDRLDREEAFYQFVNNLSEEDYRLMRDNNLLGTPGESTEEELLRRLQQIKEGPPPQNSDENRGGDSSDDVSNGDSIIDWLNSVRQTGNTTRSGQRGNQSWRAVSRTNPNSGDFRFSLEINVNRNNGSQNSENENEPSARRSSGENVENNSQRQVENPRSESTSARPSRSERNSTEALTEVPPTRGQRRARSRSPDHRRTRARAERSRSPLHPMSEIPRRSHHSISSQTFEHPLVNETEGSSRTRHHVTLRQQISGPELLSRGLFAASGTRNASQGAGSSDTAASGESTGSGQRPPTIVLDLQVRRVRPGEYRQRDSIASRTRSRSQTPNNTVTYESERGGFRRTFSRSERAGVRTYVSTIRIPIRRILNTGLSETTSVAIQTMLRQIMTGFGELSYFMYSDSDSEPTGSVSNRNMERAESRSGRGGSGGGSSSGSSSSSSSSSSSSSSSSSSSSPSSSSGGESSETSSDLFEGSNEGSSSSGSSGARREGRHRAPVTFDESGSLPFLSLAQFFLLNEDDDDQPRGLTKEQIDNLAMRSFGENDALKTCSVCITEYTEGNKLRKLPCSHEYHVHCIDRWLSENSTCPICRRAVLASGNRESVV
B1: in experiment [1], the binding result is given as “binds”.

B2: RLIM in GBC-SD and SGC-996 stable cells (enzyme, UniProt Q9NVW2 1-624)
chain: MENSDSNDKGSGDQSAAQRRSQMDRLDREEAFYQFVNNLSEEDYRLMRDNNLLGTPGESTEEELLRRLQQIKEGPPPQNSDENRGGDSSDDVSNGDSIIDWLNSVRQTGNTTRSGQRGNQSWRAVSRTNPNSGDFRFSLEINVNRNNGSQNSENENEPSARRSSGENVENNSQRQVENPRSESTSARPSRSERNSTEALTEVPPTRGQRRARSRSPDHRRTRARAERSRSPLHPMSEIPRRSHHSISSQTFEHPLVNETEGSSRTRHHVTLRQQISGPELLSRGLFAASGTRNASQGAGSSDTAASGESTGSGQRPPTIVLDLQVRRVRPGEYRQRDSIASRTRSRSQTPNNTVTYESERGGFRRTFSRSERAGVRTYVSTIRIPIRRILNTGLSETTSVAIQTMLRQIMTGFGELSYFMYSDSDSEPTGSVSNRNMERAESRSGRGGSGGGSSSGSSSSSSSSSSSSSSSSSSSSPSSSSGGESSETSSDLFEGSNEGSSSSGSSGARREGRHRAPVTFDESGSLPFLSLAQFFLLNEDDDDQPRGLTKEQIDNLAMRSFGENDALKTCSVCITEYTEGNKLRKLPCSHEYHVHCIDRWLSENSTCPICRRAVLASGNRESVV
As to B2, the binding result in experiment [2] is “binds”.

The record behind these values is article PMC9114396.
